According to PubChem BioAssay AID1794845 (National Center for Advancing Translational Sciences (NCATS), 2023):
Hit rate of the full screen: of about 6,900 compounds, fewer than 10 were called active. The call rests on the fitted dose curve; in most records, active means well fitted curve in the direction sought with a large enough effect; inconclusive means small, poorly fitted or top-dose-only effect, or another doubt; inactive means no such curve, though single readings can be large or run the other way. This is one part of the list.

The chains behind the UniProt entries cited, without tags or fusion partners. Where a name states a change or a piece, a line headed by the entry shows the natural chain unless it says otherwise.
UniProt C7C422: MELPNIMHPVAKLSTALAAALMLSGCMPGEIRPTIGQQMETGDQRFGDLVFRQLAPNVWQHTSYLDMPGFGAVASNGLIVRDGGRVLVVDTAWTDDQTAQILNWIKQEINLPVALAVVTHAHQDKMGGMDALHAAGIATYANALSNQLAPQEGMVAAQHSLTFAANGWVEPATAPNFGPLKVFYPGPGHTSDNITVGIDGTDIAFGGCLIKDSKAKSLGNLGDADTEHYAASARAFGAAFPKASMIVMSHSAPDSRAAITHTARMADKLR

target: Metallo-beta-lactamase type 2 (Klebsiella pneumoniae) (UniProt C7C422); assay: qHTS to identify inhibitors of the New Delhi Metallo-beta-lactamase (NDM): primary screen against the NCATS Gemini Collection; settings: NDM-1 enzyme, meropenem hydrolysis, absorbance 300 nm; at 38.4 µM (top of the series) unless noted; further: % of control where 0% means no effect
Outline: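 Meropenem hydrolysis (50 uM final) by 2 nM NDM-1 read as 300 nm absorbance after 30 min, following >30 min compound–enzyme preincubation in HEPES pH 7.0 with 1 uM ZnSO4 and 0.01% Tween20.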

Activity % (negative = inhibition), inactive:
Cc1nc(N(C)C)ncc1C(=O)N1CCN(c2ccccc2C#N)CC1 4.49%
O=C(Cc1ccccc1)NCc1nnc2n1C(C(=O)O)CC2 (centres undefined) 26.1%
NC(=O)[C@H]1C[C@@H](O)[C@H](O)[C@H]2[C@@H]1SC(=Nc1ccc(Cl)cc1)N2Cc1ccc(F)cc1 10.3%
COc1ccc(C(=O)N2CCCC3(CN[S+](=O)([O-])c4ccccc4N3)C2)cc1 (centres undefined) 0.251%
C[C@@H]1CN(C(=O)c2ccc(Cn3cnnn3)cc2)C[C@@]1(O)C1CCC1 -9.81%
C[S+](=O)([O-])c1ccc(-c2cc(C(=O)N3CCOCC3)nn3cccc23)cc1 -5.63%
N#Cc1cc2c(=O)n(CCCCN3CCCC3)ccc2[nH]c1=O 22.3%
Cc1noc(-c2ccc(OC3CN(S(=O)(=O)c4c(C)noc4C)C3)cc2)n1 -0.18%
CCN1CCN(CCN2CC3(CCN(C4CCOCC4)CC3)OC2=O)CC1 2.65%
COc1ccc(CC(=O)NC2CCN(C(=O)c3ccc(-c4cccs4)cc3)CC2)cc1 21.6%
O=C(c1ccccc1)N1CCCC2(CC(c3cccc(C(F)(F)F)c3)=NO2)C1 (centres undefined) -8.77%
O=C(c1ccc(C2CCCNC2)cc1)N1CCCN(c2ccc(F)cc2)CC1 (centres undefined) 12.1%
CN(CCc1nc2ccc(Cl)cc2[nH]1)c1cc(C2CC(O)C2)nc(N)n1 (centres undefined) 3.01%
Cc1ccc(N(CC(=O)N[C@H]2C[C@@H]3OCC[C@H]23)S(C)(=O)=O)cc1 -2.04%
Cc1noc(-c2cccn3c(CNC(=O)Cc4cccc(F)c4)nnc23)n1 -0.833%
CS(=O)(=O)c1ccc(CN2CCC(C(O)c3ccccn3)CC2)cc1 (centres undefined) 3.72%
O=C(Nc1ccc(Cl)cc1)c1nc2c(o1)CCN(Cc1ccncc1)CC2 22.1% [at 57.5 µM]
Fc1ccc(-c2noc(-c3ncn4c3COC(c3ccccc3Cl)C4)n2)cc1 (centres undefined) 41.7%
OC(c1ccccc1)c1nc(Nc2ccc3c(c2)OCO3)n[nH]1 (centres undefined) 8.43% [at 57.5 µM]
COc1ccccc1N1CCN(C(=O)Cn2c(C)cc3nc4n(c(=O)c32)CCCCC4)CC1 0.44%
CCCn1nc2c(c1C)C(c1ccc(OCC(N)=O)c(Cl)c1)CC(=O)N2 (centres undefined) -8.49%
Cc1cnc(C(=O)N[C@@H]2CCC[C@@H]2C(=O)N2CCC(N3CCCCC3)CC2)cn1 40.6%
Cc1cc(F)ccc1NC(=O)CCC1CCCN(C(=O)c2ccc(Cl)s2)C1 (centres undefined) -1.32%
O=C(NCC1CC1)c1nc2c(o1)CCN(CCCc1ccccc1)CC2 33.5% [at 57.5 µM]
O=c1cc(-c2cccnc2)oc2c(NCCc3ccccn3)nccc12 -2.65% [at 57.5 µM]
CC(C)n1cc(C(=O)N2CCCC(c3nnc(Cn4ccnc4)n3C)C2)cn1 (centres undefined) 24.9%
CCN(CC)CC(=O)N1CCC(Oc2ccccc2C)(C(=O)O)CC1 1.04%
CCOCC(=O)N1C[C@@H](CO)[C@H](c2ccccn2)C1 7.16%
Cc1cc(C)n(Cc2ccc(C(=O)N3CCC(N4C[C@H](O)C[C@H]4C(=O)NC4CCCCC4)CC3)o2)n1 -9.21%
O=C(C1CCCN1[S+](=O)([O-])c1cccc(C(F)(F)F)c1)N1CCC(c2nc3ccncc3[nH]2)C1 (centres undefined) 0.378%
O=C(CC1CCCN(c2cn[nH]c(=O)c2)C1)N1CCCCCC1 (centres undefined) -0.309%
CN(C)C(=O)CCN1CCOC(CC(c2ccccc2)c2ccccc2)C1 (centres undefined) 0.721%
Cc1nc(CC(=O)N2CCCC(c3ccc(C(=O)O)cc3)C2)cs1 (centres undefined) -1.53%
COCCNC(=O)C[C@@H]1C[C@@H](C(C)C)[C@H](CNC(=O)C2CC2)C=C1C 3.03% [at 57.5 µM]
Cc1cc(CN2CC(Oc3ccc(F)c(F)c3)C2)no1 2.13% [at 57.5 µM]
O=C(CC[C@@H]1CNC(=O)[C@@H]2C[C@H](NC(=O)Nc3ccc(F)cc3F)CN12)NC1CC1 -5.42% [at 57.5 µM]
C#CCNC(=O)C1CCc2nnc(-c3ccc(Cl)cc3Cl)n21 (centres undefined) 1.05%
c1ccc(O[C@H]2COCCN(Cc3cccc4c3OCO4)C2)cc1 -2.43% [at 57.5 µM]
COc1nccnc1NC1CCN(C(=O)c2ccco2)CC1 4.75%
CN(C)C(=O)N1CCCn2nc(CNC(=O)Nc3cccc(C#N)c3)cc2C1 57.3%
CC(C)=CCO[C@H]1CCOC[C@H]1NC(=O)CCc1ccc(=O)[nH]n1 3.39%
Cc1ccc(C(=O)N2CCC(N3C(=O)C4(CCCC4)C3c3scnc3C)CC2)cn1 (centres undefined) 8.69%
O=C1NC2(CN([S+](=O)([O-])c3ccccc3)C2)Oc2ccccc21 0.0334% [at 57.5 µM]
COc1ccc(Cl)cc1NC(=O)CCC1CCCN(C(=O)c2ccnn2C)C1 (centres undefined) 51.1%
CCn1ncc(N2CCC(NC(=O)c3ccccc3)CC2)cc1=O -3.91%
O=c1n(CCN2CCCC(N[S+](=O)([O-])c3ccccc3)C2)nc2n1CCCC2 (centres undefined) 39.9%
COc1ccccc1C(=O)N1CCC2(C1)NC(=O)c1ccccc1CO2 (centres undefined) 2.38%
COCCN1C(=O)c2ccccc2C(C(=O)Nc2ccc3[nH]ccc3c2)C12CCCC2 (centres undefined) -0.588%
O=C1CCN(C(=O)c2ccoc2)CCCC(c2nc(-c3cccnc3)no2)CCN1 (centres undefined) -4.47%
Cn1cc(C(=O)N2CCCC(c3nnnn3C)C2)cn1 (centres undefined) 61.7%
O=S1(=O)CC(COCc2ccccc2)CN1c1ccccc1 (centres undefined) -5.05%
COCC1(CNCC2CCCC2)C[C@@H](O)[C@@H](O)C1 (some centres undefined) 0% [at 77.1 µM]
Cc1ccccc1-c1cc(O)c2c(c1)CN(C(=O)C1CCNCC1)CCO2 -4.25%
Cc1nc(C2CCN(C(=O)[C@H]3CNC[C@H](C(=O)N4CCCC4)C3)CC2)n[nH]1 -4.04%
Cc1sc2cc(C(=O)NC(C)C)[nH]c2c1CN1CCCCC1 25.4%
COc1ccc(C(=O)N2CCC(n3c(C)cnc3-c3ccncc3)C2)c(OC)c1 (centres undefined) 3.23%
CC1CCN(S(=O)(=O)N2CCC(C(=O)N3CCc4nc5cc[nH]n5c(=O)c4C3)CC2)CC1 3.27%
O=C(CCc1conc1-c1ccc(F)cc1)NCC1CCCO1 (centres undefined) 1.18%
Cc1ccn(CCC(=O)NCc2cccnc2Oc2ccc(F)c(F)c2)n1 2.54%
CS(=O)(=O)N1CCOc2ccc(CCC(=O)NCC3CCCO3)cc2C1 (centres undefined) 1.61%
COCc1nc(C2CC(N)C2)cc(N2CCC(Cn3cccn3)CC2)n1 (centres undefined) 0.388%
CCC1C(=O)NCCN1Cc1cn(-c2cccc(F)c2)nc1-c1ccc(C)o1 (centres undefined) 16.7%
CCN(Cc1nccn1C)C(=O)c1ccc(N2CCC(COC)C2)nc1 (centres undefined) -0.441%
COCCC1(NC(=O)C2CC2)CCN(C(=O)C2CC2)CC1 0.235%
COC(=O)[C@@H](Cc1c[nH]c2ccccc12)NC(=O)[C@@H]1CN(C(=O)c2cccnc2)CCN1C(=O)NC(C)C -0.87%
Cc1ncc(-c2nc3cc(S(=O)(=O)NC(C)C)ccc3n2C(C)C)cn1 18.6%
Cc1cc(C)n(-c2cccc(CN3CCCC(O)(CN(C)C)C3)c2)n1 (centres undefined) 21.4%
CC1(c2ccccc2)N(Cc2cccnc2)C(=O)OC12CCN(C(=O)Cc1ccc(Cl)cc1)CC2 (centres undefined) 40.6%
Clc1cc(NC2CCCCC2)n2nccc2n1 17.1% [at 57.5 µM]
O=C(c1ccccc1)N1CCCC2(CC(c3ccccn3)=NO2)C1 (centres undefined) 0.634%
Cc1cccc(N2CCN(C(=O)c3cc4n(n3)CC(c3ccc(Cl)cc3)OC4)CC2)c1 (centres undefined) -4.28%
O=C1NCCCCCCN(C(=O)c2cccnc2)[C@H]2C[C@H](c3nc(Cc4ccccc4)no3)C[C@@H]12 -0.424%
COc1cccc(C(=O)N2CCOC[C@H](Oc3ccccc3)C2)c1 -1.19% [at 57.5 µM]
Cc1cn2nc(C(=O)N3CCN(C(=O)c4ccco4)CC3)cc2c(N2CCCC2)n1 40.3%
CN(CC(=O)N1CCC2(CCNCC2)CC1)Cc1cccnc1 21%
COCCN1C(=O)CCc2cc(NC(=O)c3ccc(Cl)s3)ccc21 17.2%
COCCN1Cc2ccc(NCC(C)C)nc2C(C)(C(=O)NC2CCC2)C1 (centres undefined) 3.5% [at 57.5 µM]
CCCS(=O)(=O)N1C[C@@H](Oc2ccccc2)C[C@@H]1C(=O)NCCOC 0.032%
Cc1ccc([S+](=O)([O-])NCCNC(=O)c2ccc(-c3cccc(C(F)(F)F)c3)cc2)cc1 -3.31%
Cc1cc(F)ccc1S(=O)(=O)N1C[C@H](C2CC2)[C@@H](N)C1 -2.34%
O=C(N[C@H]1CCN2C(=O)c3cc(-c4ccc(Cl)cc4)ccc3NC(=O)[C@H]12)C1CCCC1 2.11%
CCn1c2c(c(=O)n1-c1ccccc1)CCN(Cc1ncccn1)C2 44.5% [at 57.5 µM]
O=C(NCC1CC1)c1cccc(OC2CN(Cc3cc4ccccc4nc3Cl)C2)c1 13.3%
O=C(Cc1ccccc1F)N1CC2CC(C1)[C@H]1CCCC(=O)N1C2 (some centres undefined) -3.81%

Random excerpt: 2 compounds from above, in no set order.
Activity % (negative = inhibition), inactive:
C#CCNC(=O)C1CCc2nnc(-c3ccc(Cl)cc3Cl)n21 (centres undefined) 1.05%
O=C(N[C@H]1CCN2C(=O)c3cc(-c4ccc(Cl)cc4)ccc3NC(=O)[C@H]12)C1CCCC1 2.11%

An excerpt from above in order of length of the SMILES, high to low:
Activity % (negative = inhibition), inactive:
O=c1n(CCN2CCCC(N[S+](=O)([O-])c3ccccc3)C2)nc2n1CCCC2 (centres undefined) 39.9%
CN(C)C(=O)N1CCCn2nc(CNC(=O)Nc3cccc(C#N)c3)cc2C1 57.3%
COc1nccnc1NC1CCN(C(=O)c2ccco2)CC1 4.75%
